We go through 1 substance from PMC11910139.

No constants are given. Whether binding was seen depends on the method and setting. In cells and extracts the contact can be indirect. Sequences can lack the tags named with a protein.

In the assay the target is T1, ENG-HA (endoglin, HA-tagged, ectopically expressed) (UniProt P17813).
T1 sequence: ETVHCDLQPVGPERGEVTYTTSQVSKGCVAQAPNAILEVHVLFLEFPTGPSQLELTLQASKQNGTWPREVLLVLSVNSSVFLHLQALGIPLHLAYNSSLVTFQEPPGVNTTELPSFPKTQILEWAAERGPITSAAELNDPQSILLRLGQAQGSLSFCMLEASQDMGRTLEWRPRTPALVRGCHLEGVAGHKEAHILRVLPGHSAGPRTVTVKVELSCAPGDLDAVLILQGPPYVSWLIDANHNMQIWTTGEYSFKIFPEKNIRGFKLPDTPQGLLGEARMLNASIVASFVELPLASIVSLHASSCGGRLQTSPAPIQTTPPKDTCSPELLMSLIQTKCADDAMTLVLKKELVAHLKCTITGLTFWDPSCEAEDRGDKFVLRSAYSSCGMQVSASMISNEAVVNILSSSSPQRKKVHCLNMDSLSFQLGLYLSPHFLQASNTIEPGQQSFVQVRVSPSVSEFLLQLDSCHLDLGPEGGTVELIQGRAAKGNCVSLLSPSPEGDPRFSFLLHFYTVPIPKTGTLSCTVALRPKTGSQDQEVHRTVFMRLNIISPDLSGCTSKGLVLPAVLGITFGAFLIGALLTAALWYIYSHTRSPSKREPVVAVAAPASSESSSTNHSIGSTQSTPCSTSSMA
As to the kind of experiment: proximity ligation; Duolink in situ PLA; HEK293T cells overexpressing ENG-HA incubated with recombinant proteins for 1 h at 37 °C, fixed; goat anti-ENG with rabbit anti-6X His, anti-VEGFA or anti-TGF-β3; only the binder purified.

In the case of recombinant human VEGF protein (ligand), the binding result is recorded as “no binding”.
